Results are given in words; binding and its absence hold for the method and conditions named. In cells and extracts the contact can be indirect. Here binding means that the protein was enriched with, or labelled near, the bait; the list need not be complete. Where a sequence is shown, tags or fusion partners need not be part of it.
T1: Flag-HA-tagged Borealin (UniProt Q53HL2)
T1 sequence: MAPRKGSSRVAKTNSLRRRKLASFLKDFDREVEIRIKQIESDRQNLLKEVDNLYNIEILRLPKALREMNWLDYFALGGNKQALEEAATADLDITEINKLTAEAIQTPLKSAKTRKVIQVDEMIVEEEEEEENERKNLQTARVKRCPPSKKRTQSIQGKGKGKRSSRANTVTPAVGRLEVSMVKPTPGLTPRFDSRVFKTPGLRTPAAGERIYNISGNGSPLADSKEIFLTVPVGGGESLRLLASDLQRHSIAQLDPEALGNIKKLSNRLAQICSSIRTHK

The chains behind the UniProt entries cited, without tags or fusion partners. Residues count along the entry.
UniProt P46940: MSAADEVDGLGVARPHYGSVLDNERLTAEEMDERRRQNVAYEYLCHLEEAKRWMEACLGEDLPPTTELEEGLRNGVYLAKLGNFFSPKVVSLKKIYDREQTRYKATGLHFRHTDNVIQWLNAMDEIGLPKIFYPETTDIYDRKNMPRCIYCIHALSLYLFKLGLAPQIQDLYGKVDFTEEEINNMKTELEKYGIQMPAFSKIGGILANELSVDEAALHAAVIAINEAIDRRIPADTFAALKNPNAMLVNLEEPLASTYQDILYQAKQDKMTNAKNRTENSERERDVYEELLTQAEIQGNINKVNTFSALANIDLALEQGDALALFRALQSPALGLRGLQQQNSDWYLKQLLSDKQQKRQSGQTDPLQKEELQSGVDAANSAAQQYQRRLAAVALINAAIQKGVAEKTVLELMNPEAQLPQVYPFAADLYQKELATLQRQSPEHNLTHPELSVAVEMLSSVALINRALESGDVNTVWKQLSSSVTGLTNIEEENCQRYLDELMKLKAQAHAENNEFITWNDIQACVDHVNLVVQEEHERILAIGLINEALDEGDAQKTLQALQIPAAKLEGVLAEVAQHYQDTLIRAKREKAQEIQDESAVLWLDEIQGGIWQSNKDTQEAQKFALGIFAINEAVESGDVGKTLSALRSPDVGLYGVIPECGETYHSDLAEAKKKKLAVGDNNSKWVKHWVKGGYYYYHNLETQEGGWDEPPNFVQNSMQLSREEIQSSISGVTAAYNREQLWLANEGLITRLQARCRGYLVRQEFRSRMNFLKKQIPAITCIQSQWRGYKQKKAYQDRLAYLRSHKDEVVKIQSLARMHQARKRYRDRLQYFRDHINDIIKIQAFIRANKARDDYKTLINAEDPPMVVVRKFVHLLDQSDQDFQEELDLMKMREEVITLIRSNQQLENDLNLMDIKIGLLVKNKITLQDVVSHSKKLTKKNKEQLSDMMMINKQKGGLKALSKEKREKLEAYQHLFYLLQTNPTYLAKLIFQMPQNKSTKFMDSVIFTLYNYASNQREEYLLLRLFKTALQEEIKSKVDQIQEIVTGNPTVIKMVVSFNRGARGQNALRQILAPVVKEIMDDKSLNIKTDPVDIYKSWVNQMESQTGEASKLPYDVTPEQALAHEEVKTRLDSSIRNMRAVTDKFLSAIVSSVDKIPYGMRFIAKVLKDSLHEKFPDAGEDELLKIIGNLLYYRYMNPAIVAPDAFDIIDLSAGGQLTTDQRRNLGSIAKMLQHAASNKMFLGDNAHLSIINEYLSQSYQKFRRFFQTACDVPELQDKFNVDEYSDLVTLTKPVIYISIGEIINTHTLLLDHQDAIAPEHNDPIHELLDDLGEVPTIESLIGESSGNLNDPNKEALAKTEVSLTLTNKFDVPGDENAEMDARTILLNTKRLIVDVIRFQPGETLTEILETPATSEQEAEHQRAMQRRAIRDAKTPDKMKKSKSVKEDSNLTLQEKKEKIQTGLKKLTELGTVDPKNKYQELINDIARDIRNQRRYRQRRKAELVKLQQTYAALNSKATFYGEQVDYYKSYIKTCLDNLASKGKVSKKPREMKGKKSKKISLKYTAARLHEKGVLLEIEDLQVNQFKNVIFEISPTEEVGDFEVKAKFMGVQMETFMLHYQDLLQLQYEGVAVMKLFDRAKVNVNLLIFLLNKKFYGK
UniProt P52732: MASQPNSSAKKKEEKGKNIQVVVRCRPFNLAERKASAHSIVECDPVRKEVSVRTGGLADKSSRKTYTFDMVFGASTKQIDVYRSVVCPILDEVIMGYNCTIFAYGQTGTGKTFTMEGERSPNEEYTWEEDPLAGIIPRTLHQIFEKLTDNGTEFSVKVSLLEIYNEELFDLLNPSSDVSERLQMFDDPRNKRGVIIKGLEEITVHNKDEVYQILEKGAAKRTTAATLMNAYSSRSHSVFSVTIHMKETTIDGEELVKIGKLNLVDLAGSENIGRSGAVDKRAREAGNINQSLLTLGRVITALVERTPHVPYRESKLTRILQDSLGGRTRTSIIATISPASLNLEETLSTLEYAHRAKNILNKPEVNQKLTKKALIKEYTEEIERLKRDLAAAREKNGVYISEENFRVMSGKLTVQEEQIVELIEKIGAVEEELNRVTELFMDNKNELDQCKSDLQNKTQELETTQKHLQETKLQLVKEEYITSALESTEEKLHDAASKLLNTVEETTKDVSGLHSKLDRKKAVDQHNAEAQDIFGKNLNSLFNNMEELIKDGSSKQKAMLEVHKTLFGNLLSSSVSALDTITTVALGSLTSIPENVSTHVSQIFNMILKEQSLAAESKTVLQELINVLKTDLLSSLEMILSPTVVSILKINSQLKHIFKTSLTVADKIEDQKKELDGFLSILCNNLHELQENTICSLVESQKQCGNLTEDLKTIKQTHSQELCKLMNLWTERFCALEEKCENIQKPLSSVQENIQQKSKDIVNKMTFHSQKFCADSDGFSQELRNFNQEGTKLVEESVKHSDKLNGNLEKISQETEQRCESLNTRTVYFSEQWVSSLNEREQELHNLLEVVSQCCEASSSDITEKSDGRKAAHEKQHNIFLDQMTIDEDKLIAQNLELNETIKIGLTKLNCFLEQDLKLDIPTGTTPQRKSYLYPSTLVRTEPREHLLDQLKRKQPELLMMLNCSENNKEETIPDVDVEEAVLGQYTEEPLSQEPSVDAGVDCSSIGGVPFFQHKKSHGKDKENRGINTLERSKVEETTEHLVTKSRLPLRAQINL
UniProt P11021, residues 19-654: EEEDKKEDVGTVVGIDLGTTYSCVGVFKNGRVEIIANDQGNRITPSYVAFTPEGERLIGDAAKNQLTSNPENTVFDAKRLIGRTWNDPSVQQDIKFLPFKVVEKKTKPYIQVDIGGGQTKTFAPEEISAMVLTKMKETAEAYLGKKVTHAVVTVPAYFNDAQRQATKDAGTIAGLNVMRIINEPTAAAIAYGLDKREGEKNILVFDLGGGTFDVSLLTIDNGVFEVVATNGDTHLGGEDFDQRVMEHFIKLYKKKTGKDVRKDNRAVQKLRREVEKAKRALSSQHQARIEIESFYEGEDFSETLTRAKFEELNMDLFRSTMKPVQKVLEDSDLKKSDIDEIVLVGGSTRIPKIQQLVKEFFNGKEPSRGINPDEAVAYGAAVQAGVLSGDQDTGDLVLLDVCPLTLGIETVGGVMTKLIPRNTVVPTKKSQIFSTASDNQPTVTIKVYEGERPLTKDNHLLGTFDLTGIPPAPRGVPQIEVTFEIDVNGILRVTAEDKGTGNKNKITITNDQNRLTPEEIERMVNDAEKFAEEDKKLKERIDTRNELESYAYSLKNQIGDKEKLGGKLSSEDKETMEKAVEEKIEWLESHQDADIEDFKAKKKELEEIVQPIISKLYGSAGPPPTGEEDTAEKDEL

T2: Flag-HA-tagged Borealin, Q53HL2
T2 chain: T1 sequence

B1: Aurora B, Q96GD4 1-344 (protein)
chain: MAQKENSYPWPYGRQTAPSGLSTLPQRVLRKEPVTPSALVLMSRSNVQPTAAPGQKVMENSSGTPDILTRHFTIDDFEIGRPLGKGKFGNVYLAREKKSHFIVALKVLFKSQIEKEGVEHQLRREIEIQAHLHHPNILRLYNYFYDRRRIYLILEYAPRGELYKELQKSCTFDEQRTATIMEELADALMYCHGKKVIHRDIKPENLLLGLKGELKIADFGWSVHAPSLRRKTMCGTLDYLPPEMIEGRMHNEKVDLWCIGVLCYELLVGNPPFESASHNETYRRIVKVDLKFPASVPMGAQDLISKLLRHNPSERLPLAQVSAHPWVRANSRRVLPPSALQSVA

Experiments:
Flag-HA-tagged Borealin = target: T1, Flag-HA-tagged Borealin; assay: affinity purification with mass spectrometry; tandem affinity purification (anti-Flag M2 agarose, then anti-HA agarose, peptide elution) of Flag-HA-Borealin from stable HeLa cells synchronised to cytokinesis by double-thymidine block; BC100 buffer (20 mM Tris-Cl pH 7.5, 20% glycerol, 100 mM NaCl, 0.2 mM EDTA) with 0.1% Triton X-100; SDS-PAGE, gel strips sequenced by mass spectrometry
[1] = target: T2, Flag-HA-tagged Borealin, Q53HL2; assay: as above; conditions: remark: other sources report otherwise

| Molecule | binding (Flag-HA-tagged Borealin) | binding [1] |
| --- | --- | --- |
| IQ domain-containing GTPase-activating protein 1 (from UniProt P46940 1-1657) | binds | – |
| ATBP (human (endogenous in HeLa)) | binds | – |
| KIF11 (from UniProt P52732 1-1056) | binds | – |
| GRP78 (from UniProt P11021 19-654) | binds | – |
| B1 | – | binds |

Reference: PMC7334785
